Laboratory results published in the supplement of paper PMC10849652.
The list shows a part of the results.

Sequences of proteins named here, by UniProt entry; tags and fusion partners are left off. A change or cut given only in a name is not applied to a line headed by its entry.
UniProt O43169: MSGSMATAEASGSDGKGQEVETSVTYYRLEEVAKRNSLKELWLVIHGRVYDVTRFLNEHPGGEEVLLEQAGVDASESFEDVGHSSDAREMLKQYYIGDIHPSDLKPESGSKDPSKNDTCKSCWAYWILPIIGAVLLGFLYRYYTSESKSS
UniProt Q12996: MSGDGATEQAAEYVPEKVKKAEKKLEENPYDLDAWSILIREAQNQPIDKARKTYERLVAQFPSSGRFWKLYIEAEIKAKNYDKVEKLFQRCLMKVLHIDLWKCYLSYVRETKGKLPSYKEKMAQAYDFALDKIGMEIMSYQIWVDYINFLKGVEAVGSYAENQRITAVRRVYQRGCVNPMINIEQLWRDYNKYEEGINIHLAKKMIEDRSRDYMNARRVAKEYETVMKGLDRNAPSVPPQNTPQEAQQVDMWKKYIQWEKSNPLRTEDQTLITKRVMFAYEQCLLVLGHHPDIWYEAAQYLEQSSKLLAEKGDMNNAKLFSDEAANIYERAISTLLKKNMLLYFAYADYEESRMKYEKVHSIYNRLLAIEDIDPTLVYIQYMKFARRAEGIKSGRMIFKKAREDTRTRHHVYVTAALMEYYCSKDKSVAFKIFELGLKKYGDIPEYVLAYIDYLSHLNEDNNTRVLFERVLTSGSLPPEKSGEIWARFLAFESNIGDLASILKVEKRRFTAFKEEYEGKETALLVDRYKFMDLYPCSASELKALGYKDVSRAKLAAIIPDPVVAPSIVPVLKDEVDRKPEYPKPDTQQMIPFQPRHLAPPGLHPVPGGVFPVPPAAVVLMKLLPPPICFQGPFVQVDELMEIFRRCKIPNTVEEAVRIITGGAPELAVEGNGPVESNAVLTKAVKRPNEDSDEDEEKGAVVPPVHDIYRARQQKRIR
UniProt Q53TN4: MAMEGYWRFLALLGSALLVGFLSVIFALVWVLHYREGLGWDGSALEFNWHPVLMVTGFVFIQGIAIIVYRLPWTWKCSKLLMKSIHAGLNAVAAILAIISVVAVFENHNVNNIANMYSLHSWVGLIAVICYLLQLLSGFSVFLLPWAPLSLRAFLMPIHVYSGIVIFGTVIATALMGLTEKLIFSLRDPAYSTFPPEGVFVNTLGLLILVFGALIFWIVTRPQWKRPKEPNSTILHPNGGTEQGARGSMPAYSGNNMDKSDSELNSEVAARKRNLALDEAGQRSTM
UniProt Q9Y6M4: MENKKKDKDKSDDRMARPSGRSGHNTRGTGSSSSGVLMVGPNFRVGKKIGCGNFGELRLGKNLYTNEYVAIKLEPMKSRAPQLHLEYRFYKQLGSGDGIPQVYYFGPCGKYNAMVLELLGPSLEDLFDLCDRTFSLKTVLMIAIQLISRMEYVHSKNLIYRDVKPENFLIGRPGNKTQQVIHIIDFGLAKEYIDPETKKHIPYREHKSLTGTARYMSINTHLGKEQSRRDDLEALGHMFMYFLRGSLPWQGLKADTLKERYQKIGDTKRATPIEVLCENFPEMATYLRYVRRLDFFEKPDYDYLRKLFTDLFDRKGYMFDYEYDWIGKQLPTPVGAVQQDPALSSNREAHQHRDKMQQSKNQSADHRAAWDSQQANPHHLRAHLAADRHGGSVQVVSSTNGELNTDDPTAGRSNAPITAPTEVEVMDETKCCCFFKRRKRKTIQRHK
UniProt Q6UUV7: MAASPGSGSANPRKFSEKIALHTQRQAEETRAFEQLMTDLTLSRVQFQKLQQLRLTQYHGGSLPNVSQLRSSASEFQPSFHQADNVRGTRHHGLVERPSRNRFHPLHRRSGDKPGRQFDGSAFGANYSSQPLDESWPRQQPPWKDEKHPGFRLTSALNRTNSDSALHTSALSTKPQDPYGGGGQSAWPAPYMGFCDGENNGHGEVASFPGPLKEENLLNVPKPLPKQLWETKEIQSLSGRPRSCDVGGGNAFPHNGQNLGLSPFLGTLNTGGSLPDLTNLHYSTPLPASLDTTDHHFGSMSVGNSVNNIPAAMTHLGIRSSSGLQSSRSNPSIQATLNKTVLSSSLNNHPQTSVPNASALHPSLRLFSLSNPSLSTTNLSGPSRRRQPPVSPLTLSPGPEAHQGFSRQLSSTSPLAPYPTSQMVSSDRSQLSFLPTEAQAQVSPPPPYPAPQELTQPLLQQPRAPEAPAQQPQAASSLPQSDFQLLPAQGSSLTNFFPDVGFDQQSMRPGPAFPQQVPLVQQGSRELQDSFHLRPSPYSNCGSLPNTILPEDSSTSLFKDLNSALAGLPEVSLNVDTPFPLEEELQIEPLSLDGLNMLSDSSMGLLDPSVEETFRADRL
UniProt O60931: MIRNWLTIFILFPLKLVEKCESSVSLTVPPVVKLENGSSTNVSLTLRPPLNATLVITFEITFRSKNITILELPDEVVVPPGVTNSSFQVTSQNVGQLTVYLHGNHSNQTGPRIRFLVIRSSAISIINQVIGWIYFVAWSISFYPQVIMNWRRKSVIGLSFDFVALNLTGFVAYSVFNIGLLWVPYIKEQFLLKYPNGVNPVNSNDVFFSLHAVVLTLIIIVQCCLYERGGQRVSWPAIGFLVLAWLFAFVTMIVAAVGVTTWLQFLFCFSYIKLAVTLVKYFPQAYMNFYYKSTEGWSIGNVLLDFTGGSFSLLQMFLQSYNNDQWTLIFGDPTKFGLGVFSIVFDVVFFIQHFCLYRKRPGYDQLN
UniProt Q9UBT7: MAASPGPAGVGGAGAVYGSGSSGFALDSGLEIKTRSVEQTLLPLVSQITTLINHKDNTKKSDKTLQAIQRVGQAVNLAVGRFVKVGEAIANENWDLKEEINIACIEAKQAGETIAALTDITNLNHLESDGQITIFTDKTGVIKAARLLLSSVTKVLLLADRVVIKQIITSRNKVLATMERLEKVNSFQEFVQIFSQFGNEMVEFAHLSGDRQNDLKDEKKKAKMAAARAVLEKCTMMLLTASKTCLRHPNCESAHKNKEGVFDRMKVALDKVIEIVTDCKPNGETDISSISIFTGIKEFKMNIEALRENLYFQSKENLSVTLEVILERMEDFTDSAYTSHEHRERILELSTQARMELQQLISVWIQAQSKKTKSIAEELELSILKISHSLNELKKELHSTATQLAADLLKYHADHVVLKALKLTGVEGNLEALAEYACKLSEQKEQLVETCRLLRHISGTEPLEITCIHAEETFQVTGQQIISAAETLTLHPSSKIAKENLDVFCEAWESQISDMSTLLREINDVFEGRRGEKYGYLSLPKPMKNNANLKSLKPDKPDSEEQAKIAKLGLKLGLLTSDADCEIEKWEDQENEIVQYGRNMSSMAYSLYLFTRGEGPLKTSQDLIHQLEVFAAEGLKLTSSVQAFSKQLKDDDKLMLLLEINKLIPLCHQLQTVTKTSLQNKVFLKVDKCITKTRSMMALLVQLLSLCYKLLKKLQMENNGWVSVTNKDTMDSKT
UniProt P13498: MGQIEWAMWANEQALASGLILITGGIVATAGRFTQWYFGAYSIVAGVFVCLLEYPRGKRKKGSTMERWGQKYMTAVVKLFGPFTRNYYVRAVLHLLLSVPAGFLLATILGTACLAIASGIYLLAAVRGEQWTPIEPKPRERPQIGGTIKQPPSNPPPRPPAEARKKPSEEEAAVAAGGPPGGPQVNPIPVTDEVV
UniProt Q8WYA6: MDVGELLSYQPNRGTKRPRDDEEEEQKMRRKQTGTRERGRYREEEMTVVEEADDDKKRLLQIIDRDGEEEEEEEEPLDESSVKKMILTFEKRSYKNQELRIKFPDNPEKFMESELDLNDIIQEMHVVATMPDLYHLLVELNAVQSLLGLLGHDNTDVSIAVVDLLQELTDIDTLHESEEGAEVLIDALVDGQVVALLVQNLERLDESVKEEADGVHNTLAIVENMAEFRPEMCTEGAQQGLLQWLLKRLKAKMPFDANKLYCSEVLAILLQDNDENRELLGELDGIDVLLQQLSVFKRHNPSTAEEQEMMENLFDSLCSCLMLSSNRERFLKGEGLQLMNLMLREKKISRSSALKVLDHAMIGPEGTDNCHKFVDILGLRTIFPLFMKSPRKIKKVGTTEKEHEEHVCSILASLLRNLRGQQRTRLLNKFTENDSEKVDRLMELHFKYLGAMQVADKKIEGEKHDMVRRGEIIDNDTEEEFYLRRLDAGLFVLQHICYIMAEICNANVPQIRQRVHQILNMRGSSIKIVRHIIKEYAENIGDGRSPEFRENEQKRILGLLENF
UniProt Q14894: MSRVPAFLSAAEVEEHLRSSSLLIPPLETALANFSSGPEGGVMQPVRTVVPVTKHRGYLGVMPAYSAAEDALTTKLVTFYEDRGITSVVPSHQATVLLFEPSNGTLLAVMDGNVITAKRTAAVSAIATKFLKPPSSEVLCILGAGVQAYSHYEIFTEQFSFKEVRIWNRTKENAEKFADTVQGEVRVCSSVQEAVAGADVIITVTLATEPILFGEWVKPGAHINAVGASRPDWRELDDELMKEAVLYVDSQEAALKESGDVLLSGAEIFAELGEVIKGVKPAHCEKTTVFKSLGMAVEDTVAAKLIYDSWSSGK
UniProt Q2NKJ3: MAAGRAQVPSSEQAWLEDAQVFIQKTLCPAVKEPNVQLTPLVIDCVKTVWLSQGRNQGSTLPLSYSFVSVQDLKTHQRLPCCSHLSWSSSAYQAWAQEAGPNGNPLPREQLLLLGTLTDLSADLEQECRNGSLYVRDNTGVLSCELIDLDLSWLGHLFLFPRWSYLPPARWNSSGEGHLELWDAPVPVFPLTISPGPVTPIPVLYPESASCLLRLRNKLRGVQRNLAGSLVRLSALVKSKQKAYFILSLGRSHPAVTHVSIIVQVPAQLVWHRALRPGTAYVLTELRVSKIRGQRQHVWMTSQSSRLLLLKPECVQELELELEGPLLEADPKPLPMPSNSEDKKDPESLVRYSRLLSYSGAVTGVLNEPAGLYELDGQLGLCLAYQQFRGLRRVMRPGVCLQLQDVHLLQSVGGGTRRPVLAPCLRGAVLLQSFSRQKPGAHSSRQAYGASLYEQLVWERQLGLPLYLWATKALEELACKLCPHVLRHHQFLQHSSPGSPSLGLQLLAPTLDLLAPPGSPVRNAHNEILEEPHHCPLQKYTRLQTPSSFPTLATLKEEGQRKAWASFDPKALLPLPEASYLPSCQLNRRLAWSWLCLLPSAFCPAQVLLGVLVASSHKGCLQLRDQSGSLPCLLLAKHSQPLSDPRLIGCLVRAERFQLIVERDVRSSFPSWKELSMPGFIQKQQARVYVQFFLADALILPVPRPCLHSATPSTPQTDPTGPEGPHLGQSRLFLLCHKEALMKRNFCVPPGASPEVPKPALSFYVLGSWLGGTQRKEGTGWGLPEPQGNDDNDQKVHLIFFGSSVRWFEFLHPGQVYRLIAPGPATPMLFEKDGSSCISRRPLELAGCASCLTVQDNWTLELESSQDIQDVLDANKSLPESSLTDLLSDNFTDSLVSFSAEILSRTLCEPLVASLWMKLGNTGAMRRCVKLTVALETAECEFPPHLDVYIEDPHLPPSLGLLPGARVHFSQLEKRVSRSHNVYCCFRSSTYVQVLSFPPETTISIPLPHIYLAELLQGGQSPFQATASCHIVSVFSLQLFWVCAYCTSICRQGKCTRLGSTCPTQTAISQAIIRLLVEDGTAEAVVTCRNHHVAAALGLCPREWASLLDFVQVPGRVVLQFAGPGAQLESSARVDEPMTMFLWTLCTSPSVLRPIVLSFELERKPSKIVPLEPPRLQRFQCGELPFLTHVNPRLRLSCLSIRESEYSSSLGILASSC
UniProt P01036: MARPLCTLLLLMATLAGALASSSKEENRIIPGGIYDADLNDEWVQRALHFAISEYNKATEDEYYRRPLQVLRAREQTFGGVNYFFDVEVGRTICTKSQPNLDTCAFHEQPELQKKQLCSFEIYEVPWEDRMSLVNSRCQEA
UniProt Q96DE9: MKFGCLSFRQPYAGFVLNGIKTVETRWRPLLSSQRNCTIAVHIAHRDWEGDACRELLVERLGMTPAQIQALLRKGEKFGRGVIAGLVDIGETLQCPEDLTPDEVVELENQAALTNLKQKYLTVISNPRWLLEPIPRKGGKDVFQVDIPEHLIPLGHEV
UniProt P0C2W7: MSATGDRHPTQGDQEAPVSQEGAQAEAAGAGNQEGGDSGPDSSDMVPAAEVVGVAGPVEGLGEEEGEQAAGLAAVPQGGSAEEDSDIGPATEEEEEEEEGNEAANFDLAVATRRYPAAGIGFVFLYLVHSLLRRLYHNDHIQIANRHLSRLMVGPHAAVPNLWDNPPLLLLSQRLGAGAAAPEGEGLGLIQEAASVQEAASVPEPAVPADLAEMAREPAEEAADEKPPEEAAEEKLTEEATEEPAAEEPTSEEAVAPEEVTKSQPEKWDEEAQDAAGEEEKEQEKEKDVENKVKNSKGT
UniProt Q9Y2S2: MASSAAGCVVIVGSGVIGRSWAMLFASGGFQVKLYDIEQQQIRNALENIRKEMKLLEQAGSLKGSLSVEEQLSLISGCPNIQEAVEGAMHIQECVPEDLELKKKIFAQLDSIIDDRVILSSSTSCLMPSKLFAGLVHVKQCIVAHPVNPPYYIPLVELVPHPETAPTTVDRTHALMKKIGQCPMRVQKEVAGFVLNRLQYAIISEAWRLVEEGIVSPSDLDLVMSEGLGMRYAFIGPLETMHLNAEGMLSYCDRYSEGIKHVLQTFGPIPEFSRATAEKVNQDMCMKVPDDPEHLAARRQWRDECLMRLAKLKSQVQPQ

Legend:
Test in all cases: log2 fold change, soluble protein after heating vs DMSO (PISA); higher = thermal stabilisation; K562 lysate, 10 uM; active = over 0.2 and 3.5 SD of the protein, either way, in both replicates (recomputed)
vemurafenib = compound: CCCS(=O)(=O)Nc1ccc(F)c(C(=O)c2c[nH]c3ncc(-c4ccc(Cl)cc4)cc23)c1F [vemurafenib]
In short: (§1)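 Log-two fold change in thermal stability relative to solvent controls is reported from duplicates. For each sample, crude K562 extract from dounce-homogenised pellets in PBS pH 7.4 with 1 mM MgCl2, at 1 mg/mL protein, was treated with 10 μM compound for 30 min. Aliquots heated for 3 min across 48°C-58°C were pooled, brought to 0.5% NP-40 at 4°C and cleared at 21,000xg for 90 min. The supernatant was quantified by TMTpro 16plex LC-MS/MS with channel sums equalised.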

[1] = compound: CCCS(=O)(=O)Nc1ccc(F)c(C(=O)c2c[nH]c3ncc(Cl)cc23)c1F
In short: as §1

barasertib = compound: CCN(CCCOc1ccc2c(Nc3cc(CC(=O)Nc4cccc(F)c4)[nH]n3)ncnc2c1)CCOP(=O)(O)O [barasertib]
In short: as §1

[2] = compound: CC[C@@H]1C(=O)N(C)c2cnc(Nc3ccc(C(=O)NC4CCN(C)CC4)cc3OC)nc2N1C1CCCC1
In short: as §1

volasertib = compound: CC[C@@H]1C(=O)N(C)c2cnc(Nc3ccc(C(=O)N[C@H]4CC[C@H](N5CCN(CC6CC6)CC5)CC4)cc3OC)nc2N1C(C)C [volasertib]
In short: as §1

[3] = compound: CCn1c(C(=O)N(C2CC2)C2CC2)cc2c3c(ncn3C)c(Nc3cc(C)n(C)n3)nc21
In short: as §1

[4] = compound: CCn1cc(-c2ccnc3[nH]c(-c4cccc(CN(C)C)c4)cc23)c(-c2ccc(NC(=O)N(C)C)cc2)n1
In short: as §1

[5] = compound: CN1CCC(CNc2ccc3ncc(-c4cccc(OC(F)(F)F)c4)n3n2)CC1
In short: as §1

saracatinib = compound: CN1CCN(CCOc2cc(OC3CCOCC3)c3c(Nc4c(Cl)ccc5c4OCO5)ncnc3c2)CC1 [saracatinib]
In short: as §1

sotrastaurin = compound: CN1CCN(c2nc(C3=C(c4c[nH]c5ccccc45)C(=O)NC3=O)c3ccccc3n2)CC1 [sotrastaurin]
In short: as §1

Target	log2 fold change (vemurafenib)	log2 fold change [1]	log2 fold change (barasertib)	log2 fold change [2]	log2 fold change (volasertib)	log2 fold change [3]	log2 fold change [4]	log2 fold change [5]	log2 fold change (saracatinib)	log2 fold change (sotrastaurin)
CYB5B (UniProt O43169)	inactive: 0.009	inactive: 0.017	inactive: 0.202	inactive: 0.092	inactive: 0.051	inactive: -0.008	inactive: -0.091	inactive: -0.058	inactive: 0.096	inactive: -0.021
CSTF3 (UniProt Q12996)	inactive: -0.042	inactive: 0.007	inactive: 0.032	inactive: -0.02	inactive: -0.045	inactive: 0.028	inactive: 0.019	inactive: -0.054	inactive: 0.017	inactive: 0.013
CTBP2 isoform 2 (UniProt P56545)	inactive: 0.015	inactive: 0.055	inactive: 0.091	inactive: -0.006	inactive: 0.018	inactive: 0.012	inactive: -0.006	inactive: 0.015	inactive: -0.013	inactive: -0.012
CYBRD1 (UniProt Q53TN4)	inactive: 0.025	inactive: -0.051	inactive: -0.051		inactive: -0.016		inactive: -0.05	inactive: 0.078	inactive: -0.066	inactive: 0.091
CRYM-AS1 (UniProt A6NIL9)	inactive: -0.016	inactive: -0.127	inactive: 0	inactive: 0.366	inactive: 0.345	inactive: -0.349	inactive: -0.188	inactive: 0.473		inactive: -0.019
CTSB (UniProt P07858)	inactive: 0.049	inactive: 0.016	inactive: 0.021	inactive: -0.03	inactive: -0.027	inactive: -0.02	inactive: -0.041	inactive: 0.016	inactive: 0.005	inactive: -0.036
CSNK1G3 (UniProt Q9Y6M4)	inactive: -0.004	inactive: -0.053	inactive: -0.028		inactive: 0.002	inactive: 0.039	inactive: -0.095	inactive: 0.065	inactive: 0.043	inactive: 0.035
CRCP (UniProt O75575)	inactive: 0.024	inactive: 0.03	inactive: 0.114	inactive: 0.042	inactive: 0.023	inactive: 0.041	inactive: -0.013	inactive: -0.025		inactive: 0.017
CRTC3 (UniProt Q6UUV7)	inactive: 0.041		inactive: 0.092	inactive: 0.038		inactive: 0.074			inactive: 0.043	inactive: -0.049
CTNS isoform 2 (UniProt O60931)	inactive: 0.058		inactive: 0.071	inactive: 0.056		inactive: 0.108	inactive: -0.314	inactive: 0.257	inactive: -0.184	inactive: -0.07
CTNNAL1 (UniProt Q9UBT7)	inactive: 0.047	inactive: 0.052		inactive: -0.066	inactive: -0.079		inactive: -0.192	inactive: -0.007	inactive: -0.382	inactive: -0.08
CYBA (UniProt P13498)	inactive: 0.01	inactive: 0.011	inactive: 0.001	inactive: -0.032	inactive: 0.04	inactive: 0.002	inactive: 0.018	inactive: 0.038	inactive: -0.011	inactive: -0.015
CTNNBL1 (UniProt Q8WYA6)	inactive: 0.004	inactive: 0.016	inactive: 0.005	inactive: -0.042	inactive: -0.041	inactive: -0.16	inactive: -0.013	inactive: -0.091	inactive: 0.023	inactive: 0.015
CRYM (UniProt Q14894)	inactive: -0.28	inactive: 0.021	inactive: -0.135	inactive: 0.061	inactive: -0.015	inactive: -0.139	inactive: -0.054	inactive: 0.076		inactive: 0.081
CTC1 (UniProt Q2NKJ3)	inactive: 0.008		inactive: 0.165	inactive: 0.09		inactive: -0.06	inactive: -0.027	inactive: -0.004	inactive: 0.121	inactive: 0.011
CSTB (UniProt P04080)	inactive: 0.007	inactive: 0.001	inactive: 0.077	inactive: 0.043	inactive: 0.044	inactive: -0.027	active: -0.376	inactive: 0.174	inactive: 0.013	inactive: 0.086
CSNK1D (UniProt P48730)	inactive: -0.04	inactive: -0.044	inactive: -0.092		inactive: -0.191	inactive: 0.025		inactive: 0.255	inactive: -0.039	inactive: 0.058
CST4 (UniProt P01036)		inactive: -0.125	inactive: -0.099	inactive: 0.006	inactive: -0.14	inactive: -0.005			inactive: -0.248	
CXorf40B (UniProt Q96DE9)	inactive: -0.003	inactive: -0.15	inactive: -0.016		inactive: 0.244	inactive: 0.067	inactive: 0.001	inactive: -0.067	inactive: 0.04	inactive: 0.037
CXCL14 (UniProt O95715)	inactive: 0.252		inactive: 0.079	inactive: 0.189						
CT47B1 (UniProt P0C2W7)	inactive: 0.111	inactive: -0.016	inactive: -0.099	inactive: -0.014	inactive: -0.04	inactive: 0.07			inactive: 0	inactive: 0.088
CRYL1 (UniProt Q9Y2S2)	inactive: 0.365	inactive: 0.045			inactive: 0.074				inactive: -0.036	inactive: 0.127

Part of the list above, in markdown.

| Target | log2 fold change (vemurafenib) | log2 fold change [1] | log2 fold change (barasertib) | log2 fold change [2] | log2 fold change (volasertib) | log2 fold change [3] | log2 fold change [4] | log2 fold change [5] | log2 fold change (saracatinib) | log2 fold change (sotrastaurin) |
| --- | --- | --- | --- | --- | --- | --- | --- | --- | --- | --- |
| CYBA (UniProt P13498) | inactive: 0.01 | inactive: 0.011 | inactive: 0.001 | inactive: -0.032 | inactive: 0.04 | inactive: 0.002 | inactive: 0.018 | inactive: 0.038 | inactive: -0.011 | inactive: -0.015 |
| CTNNBL1 (UniProt Q8WYA6) | inactive: 0.004 | inactive: 0.016 | inactive: 0.005 | inactive: -0.042 | inactive: -0.041 | inactive: -0.16 | inactive: -0.013 | inactive: -0.091 | inactive: 0.023 | inactive: 0.015 |
